Experimental data from paper PMC6078970, “Nonequilibrium self-assembly dynamics of icosahedral viral capsids packaging genome or polyelectrolyte” (Nature Communications, 2018).
These are yes or no findings as the source states them, for the method shown. Some results given as binding are weak or reduced against the parent protein; the word gives no strength.

Protein sequences, listed by entry. Tags and fused reporters are not part of them. Residues count along the entry.
UniProt P03601, residues 26-190: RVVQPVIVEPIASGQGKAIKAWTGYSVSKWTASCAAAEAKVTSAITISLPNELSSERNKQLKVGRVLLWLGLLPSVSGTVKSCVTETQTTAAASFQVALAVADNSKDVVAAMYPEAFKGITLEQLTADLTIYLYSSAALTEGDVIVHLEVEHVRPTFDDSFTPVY

Tests used:
[1] = target: cowpea chlorotic mottle virus (CCMV) capsid protein, dimeric subunit (cowpea chlorotic mottle virus) (UniProt P03601); assay: time-resolved SAXS + cryo-TEM; NPCs pre-assembled from subunits and genomic RNA (mass ratio 5.5) mixed with buffer bringing pH to 5.2 and ionic strength to 55 mM, 20 °C; capsid shell forms around the RNA genome; cryo-TEM after a few days of incubation; both purified
[2] = target: cowpea chlorotic mottle virus (CCMV) capsid protein, dimeric subunit (cowpea chlorotic mottle virus) (UniProt P03601); assay: time-resolved SAXS + cryo-TEM; subunits mixed with 600-kDa poly(styrene sulfonic acid) (PSS) at pH 7.5, final ionic strength 0.1 M, subunit-to-PSS mass ratio 8 (SAXS) or 6 (cryo-TEM); capsid shell forms around PSS; both purified

cowpea chlorotic mottle virus (CCMV) capsid protein, dimeric subunit (from UniProt P03601 26-190)
binding [1]: binds | binding [2]: binds
